Reference: US8399495B2, “Talarazole metabolites” (Stiefel Laboratories, Inc., priority 2006, dated 2013)
Some of these results come from one statement about several compounds together. For part of these data: At least one compound was matched to its structure with a doubt left.

Experiments:
[1] = Metabolite radioprofiling of plasma, urine and feces, rat; assay type: in vivo; settings: minor radio-components, male and female
Protocol: (§1) Male and female CD-1 mice (19-29 g, n=3/sex/timepoint for blood sampling, n=3/sex for mass balance), Sprague Dawley rats (0.205-0.237 kg, n=3/sex/timepoint for blood sampling, n=3/sex for mass balance) and beagle dogs (7-12 kg, n=3) were given a single oral dose of ^14C-labeled talarozole in 20% hydroxyl propyl B-cyclodextrin at 5 mg/kg. Healthy human male volunteers (76.6-107.9 kg, n=5) were dosed with a single oral dose of 4 mg ^14C-labeled rambazole in ethanol. Blood samples were collected at selected timepoints after dosing and plasma was prepared. Urine and feces were collected for 2, 7 and 8 days. For the human study, up to 288 hours post-dose and semen samples were obtained 2 and 4 hours post-dose. Radioactivity in various matrices were measured by liquid scintillation counting (LSC). […] Radioactivity peaks were integrated and the percent distribution of individual metabolites in each sample was determined. […] For all species, plasma, urine and fecal samples were pooled across animals and analyzed. Plasma was analyzed at several time-points out to 24 hours. […] PK parameter values were determined by non-compartmental methods using WinNonlin™. • HPLC data for separations described in Example 1: • LC system: Waters 2695 Separations Module • Analytic column: C18 column, 4.6×150 mm, 3 μm • Flow rate: 1.0 mL/min • Mobile phase A: 2% HCOOH in H2O (pH 3.2) • Mobile phase B: CH3CN • Gradient: […]

[2] = Metabolite radioprofiling of plasma, urine and feces, dog; assay type: in vivo; settings: minor metabolites, male and female
Protocol: as §1

Structure (SMILES)	% of the dose in rat urine (range over the named components and both sexes) [1]	% of the dose in dog urine (range over the named metabolites and both sexes) [2]
CCC(CC)C(c1ccc(Nc2nc3ccc(O)cc3s2)cc1)n1cncn1 (stereo not drawn) [Metabolite M4]	0.07-1.90 % of the dose	–
CCC(CC)C(c1ccc(Nc2nc3ccc(OC4OC(C(=O)O)C(O)C(O)C4O)cc3s2)cc1)n1cncn1 (stereo not drawn) [Metabolite M9]	–	0.45-1.34 % of the dose
CCC(CC)[C@H](c1ccc(Nc2nc3ccccc3s2)cc1)n1cncn1 [Talarozole, (R)—N-[4-[2-ethyl-1-(1H-1,2,4-triazole-1-yl)butyl]phenyl]-2-benzothiazolamine]	0.07-1.90 % of the dose	–
